Results are given in words; binding and its absence hold for the method and conditions named. Binding can be weak; no strength is given. Tags and fused reporters may be left off the sequences shown.

For assay [1], the target named is T1, Yah1-GST fusion protein (S. cerevisiae) (UniProt Q12184).
T1 sequence: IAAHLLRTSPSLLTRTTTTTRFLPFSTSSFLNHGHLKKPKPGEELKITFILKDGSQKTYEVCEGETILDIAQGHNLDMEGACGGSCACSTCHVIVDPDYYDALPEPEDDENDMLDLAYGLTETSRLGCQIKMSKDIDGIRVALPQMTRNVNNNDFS
The assay is described as follows: pull-down; GST-tagged Yah1 bait (2.5 μM) incubated with NIA (5 μM or increasing) and/or Isu1 (7.5 μM) in buffer PD (40 mM Hepes–KOH pH 7.5, 5% glycerol, 100 mM KCl, 1 mM DTT, 10 mM MgCl2) 15 min at 25 °C; glutathione agarose 1 h at 4 °C; SDS-PAGE, InstantBlue, densitometry corrected for binding to GST; aerobic (Yah1 cluster oxidised); both purified.

Assay [2] addresses T1, Yah1-GST fusion protein (S. cerevisiae). The assay is described as follows: BLI; Yah1^GST immobilised on anti-GST biosensors; analytes NIA (10 μM) alone, Isu1 (10 μM) alone or both; buffer BLI (40 mM HEPES–KOH pH 7.5, 5% glycerol, 100 mM KCl, 1 mM DTT, 10 mM MgCl2, 0.05% Triton X-100); room temperature; aerobic (Yah1 cluster oxidised); fits with the 2:1 heterogenous ligand model; both purified. For orientation: In BLI a coated tip is dipped into the sample, and binding shifts an interference pattern.

The target is the same in assay [3]. The assay is described as follows: pull-down; competition: Yah1^GST (2.5 μM) with NIA (5 μM), with or without Isu1Sc or Isu1Ct (7.5 μM), then Yfh1 WT or DE/KK added (12.5 μM or increasing concentrations); glutathione resin; densitometry, amount without Yfh1 set as 100%; buffer PD; both purified.
Assay [4] concerns the target T2, Yfh1-GST fusion protein (S. cerevisiae) (UniProt Q07540).
T2 sequence: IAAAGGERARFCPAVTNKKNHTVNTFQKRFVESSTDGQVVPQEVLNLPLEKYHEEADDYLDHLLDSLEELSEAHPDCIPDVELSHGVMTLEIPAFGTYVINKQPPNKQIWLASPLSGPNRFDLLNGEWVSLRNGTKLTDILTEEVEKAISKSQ
The assay is described as follows: BLI; competition: Yfh1^GST on anti-GST sensors, loaded with NIA (10 μM) and Isu1Ct (10 μM), dissociation in solutions containing Yah1 WT (increasing concentrations, 40 μM) or Yah1(DD/KK) (40 μM); buffer BLI, room temperature; both purified.

Assay [5] addresses T2, Yfh1-GST fusion protein (S. cerevisiae). The assay is described as follows: pull-down; competition: Yfh1^GST (2.5 μM) with NIA (5 μM) and Isu1Ct (7.5 μM), then Yah1 WT (increasing concentrations, 50 μM) or Yah1(DD/KK) (50 μM) added; glutathione resin; densitometry, amount without Yah1 set as 100%; buffer PD; both purified.
In assay [6] the target is T1, Yah1-GST fusion protein (S. cerevisiae). The assay is described as follows: BLI; competition: Yah1^GST on anti-GST sensors, loaded with NIA (10 μM) and Isu1Ct (10 μM), dissociation in solutions containing Yfh1 WT (increasing concentrations) or Yfh1(DE/KK) (12.5 μM); buffer BLI, room temperature; both purified.

Take Isu1 ortholog of C. thermophilum: the binding entry in assay [1] is reported as “no binding (tested: 7.5 μM)”.

“NIA–Isu1 complex with C. thermophilum Isu1”: the binding result in assay [2], in assay [3], in assay [4], in assay [5], in assay [1] and in assay [6] was “binds” each time.

For the origin of these results see publication PMC8888459.
